Laboratory results taken from the supplement of paper PMC7052299.
Some of the results follow. Repeats are few or missing, and single values can be far off.

Test system: Danio rerio embryo (th-expressing DA/NA neurons)
Test: percentage of embryos with altered th expression (decrease or increase vs DMSO control) in brain region; higher = more embryos with altered dopaminergic/noradrenergic marker expression; extreme values may be limits of the assay
Conditions: treatment window: 24-72 hpf, fixed 96 hpf
Method: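 Primary screen in zebrafish embryos (AB/TL). Embryos were treated with each compound at 1, 3, 10 or 30 µM in E3/PTU with 1% DMSO from 24 to 72 hpf, washed out, and fixed at 96 hpf. th (tyrosine hydroxylase) expression was scored by whole-mount in situ hybridization per DA/NA brain region (strong decrease, decrease, normal, increase, strong increase), with 7-16 embryos per treatment and no independent replicates. The value is the percentage of scored embryos whose th expression was altered (decrease or increase) relative to DMSO controls.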

Measured: percentage of embryos with altered th expression

O=C(c1ccc(C(=O)N2CCC(N3CCCC3)CC2)c(Nc2ccccc2)c1)N1CCC(N2CCCC2)CC1
76.9%: 1 µM, brain region: telencephalon
10%: 3 µM, brain region: Pretectum
84.6%: 30 µM, brain region: telencephalon
100%: 10 µM, brain region: telencephalon
38.5%: 30 µM, brain region: Pretectum
7.69%: 1 µM, brain region: Pretectum | 10 µM, brain region: DC 4,5,6 | 30 µM, brain region: DC 4,5,6
0%: 1 µM, brain region: DC1 | 1 µM, brain region: DC2 | 1 µM, brain region: DC3 | 1 µM, brain region: DC 4,5,6 | 1 µM, brain region: LC | 1 µM, brain region: MO | 3 µM, brain region: DC1 | 3 µM, brain region: DC2 | 3 µM, brain region: DC3 | 3 µM, brain region: DC 4,5,6 | 3 µM, brain region: LC | 3 µM, brain region: MO | 10 µM, brain region: DC1 | 10 µM, brain region: DC2 | 10 µM, brain region: DC3 | 10 µM, brain region: LC | 10 µM, brain region: MO | 10 µM, brain region: Pretectum | 30 µM, brain region: DC1 | 30 µM, brain region: DC2 | 30 µM, brain region: DC3 | 30 µM, brain region: LC | 30 µM, brain region: MO
50%: 3 µM, brain region: telencephalon
